In US20070190603A1 (MIT, published 2007):
No constants are given. Whether binding was seen depends on the method and setting. Some binding calls cover weakened binding; strength is not graded here.

Experiments:
[1] = target: RAD16 peptide, H2N-…-COOH; test: membrane formation test
[2] = target: RAD16 peptide, H2N-…-COOH; test: self-assembly into a macroscopic membrane in PBS; phase-contrast microscopy and Congo Red staining
[3] = target: RAD16 peptide, H2N-…-COOH; test: self-assembly into a macroscopic membrane in DMEM; phase-contrast microscopy and Congo Red staining

- binding [1]: binds
- binding [2]: binds
- binding [3]: binds
Binder: ARARADADARARADAD [RAD16 peptide, H2N-…-COOH]
